Several values for one entry are separate records, joined by “and”; a condition that tells them apart may be missing. Equal entries are not always repeated. Some of the results follow. The main result of the screen is listed elsewhere. These columns were measured beside it and carry no call. The list favours compounds with an active or inconclusive main result. Words in brackets tell the shape of the fitted curve; partial curves, single points and poor fits give uncertain potencies.
Assay: qHTS Assay for Modulators of Lamin A Splicing
Conditions: HeLa LMNA splicing GFP/RFP minigene ratio, 48 h
In short: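 Read-out is the ratio of GFP to DsRed2 object intensity, acquired by 488 nm laser-scanning cytometry on HeLa lamin A-EGFP minigene reporter cells. Compound incubation 48 hrs at 37 °C in Opti-MEM with 2% FBS; DMSO 0.5% final.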

[1] = measured here: GFP splicing reporter channel
[2] = measured here: RFP viability control channel

| Structure (SMILES) | AC50 [1] | AC50 [2] |
| --- | --- | --- |
| CCOC(=O)c1c(N)sc2c1CCC(C)C2 (stereo not drawn) | 35.5 µM [rising, single point] |  |
| COc1ccc(CCNC(=O)c2sc3ccccc3c2Cl)cc1OC |  | 17.8 µM [rising, single point] |
| CC(C)(Sc1ccc(CCN(CCCCC2CCCCC2)C(=O)NC2CCCCC2)cc1)C(=O)O | 20 µM [falling, single point] | 22.4 µM [falling, partial curve] |
| COc1ccccc1NC(=O)Nc1ccc(Cl)c(S(=O)(=O)Nc2ccccc2OC)c1 |  | 35.5 µM [rising, single point] |
| CCN(Cc1ccncc1)C(=O)c1cc(Br)cc(Br)c1O | 10 µM [rising, partial curve, poor fit] | 6.31 µM [rising, partial curve] |
| O=C(O)C1=C(C(=O)Nc2cc(C(F)(F)F)ccc2Cl)CCCC1 | 2.24 µM [falling, partial curve, poor fit] | 2.51 µM [falling, partial curve, poor fit] |
| CC(C)(C)c1cc(C(=O)Nc2cccc3ccccc23)ccn1 |  | 0.891 µM [rising, full curve, poor fit] |
| CCc1cc2c(N3CCCCC3)ncnc2s1 |  | 20 µM [rising, single point] |
| COc1ccc(C)c(Cn2c(-c3nonc3N)nc3ccccc32)c1 |  | 7.94 µM [rising, partial curve, poor fit] |
| CCOC(=O)c1cccc(NC(=O)CSc2nnc(C3CCCCC3)n2CC)c1 | 12.6 µM [rising, partial curve] |  |
| COc1ccc(-n2nc(C#N)c(Cl)cc2=O)cc1 |  | 10 µM [falling, partial curve] |
| CSc1ccc2c(c1)N(CCC1CCCCN1C)c1ccccc1S2 (stereo not drawn) | 1.26 µM [falling, full curve, poor fit] and 12.6 µM [falling, partial curve] and 35.5 µM [falling, single point] | 25.1 nM [rising, partial curve, poor fit] and 14.1 µM [falling, partial curve] |
| CCC/C(=N\NC(=O)Cc1csc(N2CCOCC2)n1)c1ccccc1 | 8.91 µM [falling, partial curve] | 15.8 µM [falling, single point] |
| O=C(Cn1c(-c2cccs2)cc2cc(F)ccc21)N1CCN(c2cccc(Cl)c2)CC1 | 0.112 µM [falling, full curve] |  |
| COc1cccc(Cc2nc3ccccc3nc2SCC(=O)N2CCN(c3ccccc3)CC2)c1 | 0.562 µM [rising, single point] | 0.708 µM [rising, single point] |
| O=C(N1CCN(c2ccccc2F)CC1)C1(c2cccs2)CCOCC1 | 17.8 µM [rising, single point] | 31.6 µM [rising, single point] |
| Cc1noc(C)c1COc1cccc(C(=O)OCC(=O)N2CC(=O)Nc3ccccc32)c1 | 2.82 µM [falling, full curve] | 5.01 µM [falling, full curve, poor fit] |

Fetched by compound from the list above, 3 records:

| Structure (SMILES) | AC50 [1] | AC50 [2] |
| --- | --- | --- |
| CSc1ccc2c(c1)N(CCC1CCCCN1C)c1ccccc1S2 (stereo not drawn) | 1.26 µM [falling, full curve, poor fit] and 12.6 µM [falling, partial curve] and 35.5 µM [falling, single point] | 25.1 nM [rising, partial curve, poor fit] and 14.1 µM [falling, partial curve] |
| O=C(O)C1=C(C(=O)Nc2cc(C(F)(F)F)ccc2Cl)CCCC1 | 2.24 µM [falling, partial curve, poor fit] | 2.51 µM [falling, partial curve, poor fit] |
| COc1cccc(Cc2nc3ccccc3nc2SCC(=O)N2CCN(c3ccccc3)CC2)c1 | 0.562 µM [rising, single point] | 0.708 µM [rising, single point] |

Later entries

| Structure (SMILES) | AC50 [1] | AC50 [2] |
| --- | --- | --- |
| CCC1CN(C(=O)Nc2cccc(OC)c2)c2ccccc2O1 (stereo not drawn) | 4.47 µM [falling, partial curve, poor fit] |  |
| CCC(CC)C(=O)Oc1c(Sc2ccccc2[N+](=O)[O-])c(C)nn1C(C)(C)C |  | 31.6 µM [rising, single point] |
| Cc1ccc(NC(C#N)c2ccccc2OCc2ccccc2)cc1 (stereo not drawn) | 12.6 µM [falling, partial curve] | 11.2 µM [falling, partial curve] |
| CCOc1ccc(-n2c(-c3ccccc3)c[n+]3c2CCC3)cc1 | 20 µM [rising, partial curve] | 14.1 µM [rising, partial curve] |
| CCCCS(=O)(=O)Nc1ccc2c(c1)ncn2C1CCCCC1 |  | 17.8 µM [rising, single point] |
| CC(=O)OCCNc1cc(SC(C)C)c2nonc2c1[N+](=O)[O-] |  | 0.251 µM [falling, full curve, poor fit] |
| Cc1nnc(NC(=O)CSc2nccn2-c2cccc(C)c2C)s1 |  | 1.41 µM [rising, partial curve] |
| CC(C)(C)c1ccc(OCCCC(=O)NC2=NCCS2)cc1 | 12.6 µM [rising, partial curve] | 12.6 µM [rising, single point] |
| O=C(C1CCCN1C(=O)c1cccs1)N1CCN(Cc2ccc3c(c2)OCO3)CC1 (stereo not drawn) | 35.5 µM [rising, single point] |  |
| CCOC(=O)C(N)CSC1CC(=O)N(c2ccc(C(=O)OC)cc2)C1=O (stereo not drawn) |  | 2.82 µM [falling, single point] |
| COc1ccccc1N1CCN(C(c2cccs2)C(C)NC(=O)c2cccs2)CC1 (stereo not drawn) |  | 35.5 µM [rising, single point] |
| O=C(O)CCCNS(=O)(=O)c1ccc(F)cc1 |  | 5.62 µM [falling, full curve, poor fit] |
| CCOc1ccccc1NC(=O)Nc1cc(C(=O)NCc2ccc(C)cc2)ccc1N1CCCC1 | 25.1 µM [falling, single point] | 25.1 µM [falling, partial curve] |
| COc1ccc(OC)c(NC(=O)c2c(NCc3ccc(OC)c(OC)c3)sc3c2CCC3)c1 | 12.6 µM [falling, single point] |  |
| CC/C(=C(/CC)c1ccc(O)cc1)c1ccc(O)cc1 | 20 µM [rising, partial curve, poor fit] | 11.2 µM [rising, partial curve, poor fit] |
| Cc1ccc(NS(=O)(=O)c2cc(NC(=O)c3ccc4c(c3)NC(=O)CS4)ccc2C)c(C)c1 | 35.5 µM [rising, single point] | 35.5 µM [rising, single point] |
| COc1ccc2nc3sc(C(=O)NCc4cccs4)c(N)c3cc2c1 |  | 22.4 µM [falling, partial curve] |

Source: PubChem BioAssay AID1487 (National Center for Advancing Translational Sciences (NCATS), 2009)
